# Measurements taken from patent publication US8895585B2, “Nicotinamide derivative or salt thereof” (FUJIFILM Corporation, priority 2010, dated 2014).
# Target: glutathione S-transferase (GST)-fused full-length human Syk protein (Homo sapiens, UniProt P43405)
# Assay: Syk enzyme assay
# Settings: read-out: IC50 of Syk-inhibitory activity, Test Example 1
# Method: A glutathione S-transferase (GST)-fused full-length human Syk protein (Carna Biosciences), which had been generated using a Baculovirus expression system, was used in the Syk enzyme assay.
# 15 μl of a reaction solution (1.2 ng Syk, 20 mM HEPES, 10 mM MgCl2, 50 mM NaCl, 2 mM DTT, 0.05% BSA, pH 7.0) containing a Syk protein and a predetermined concentration of a test compound was shaken for 2 minutes, and it was then left at rest at room temperature for 13 minutes. Thereafter, 5 μl of Biotin-EDPDYEWPSA-NH2 (final concentration: 0.4 μM) serving as a substrate peptide and 5 μl of ATP (final concentration: 27 μM) were added to the reaction solution, and the obtained mixture was then shaken for 2 minutes. The reaction solution was further left at rest at room temperature for 40 minutes, so as to carry out an enzyme reaction.
# Thereafter, 50 μl of a reaction termination solution [5 μg/ml Streptavidin, 0.18 μg/ml PT66-K, 30 mM HEPES (pH 7.0), 150 mM KF, 75 mM EDTA, 0.15% BSA, 0.075% Tween20], which contained Streptavidin-Xlent (Cisbio) and Mab PT66-K (Cisbio), was added to the reaction solution to terminate the enzyme reaction. […] Thereafter, using EnVision (PerkinElmer), the time-resolved fluorescence was measured at 615 nm and 665 nm, so that the phosphorylation of the substrate peptide was measured. […]
row,IC50 [nM],Structure (SMILES)
1,100 to 1000,"NCCNc1nc(Nc2cccc(C(=O)NC3CCCCC3)c2)c(C(N)=O)cc1F [Example 31-3, 6-((2-aminoethyl)amino)-2-((3-(cyclohexylaminocarbonyl)phenyl)amino)-5-fluoronicotinamide]"
2,10 to 50,"NCCNc1nc(Nc2cccc(C(=O)Nc3ccccc3)c2)c(C(N)=O)cc1F [Example 30, 6-(2-aminoethylamino)-2-(3-(anilinocarbonyl)phenylamino)-5-fluoronicotinamide]"

# The match of structure and compound is tentative.
